PubChem BioAssay AID1224830 | NIAID, 2016
Screen: 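Host factors that control LPS-induced TNF expression in human macrophages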 (primary screen). System: human THP-1 monocytic leukaemia cells, TNF dual-luciferase reporter clone, PMA-differentiated to macrophage-like cells. Reagent: siRNA pool against human genes, 50 nM. Timing: LPS for 4 h, given about 3 days after siRNA transfection. Treatment: bacterial LPS (TLR4 ligand), 10 ng/ml. Measured: 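Ratio of firefly to renilla light, scaled to the plate median and expressed as a robust z-score per replicate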. Reading the numbers: TNF reporter robust z-score: higher = stronger TNF reporter response to LPS. Active means: 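a well is active when its z-score exceeds 2.8 or falls below -1.5; control wells carry no call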.
In all, the deposit lists about 18,000 reagents; below is a part drawn at random. In the full data, about 2,900 (16%) were called active. 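Calls are made per well; low scores hint the gene aids the LPS response, high scores that it dampens it.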 Unmarked entries are inactive. Repeated entries: four replicate wells of each siRNA pool. Reagent sequences are not shown.

{"gene": "REV3L (REV3 like, DNA directed polymerase zeta catalytic subunit)", "TNF reporter robust z-score": -1.06}
{"gene": "REV3L (REV3 like, DNA directed polymerase zeta catalytic subunit)", "TNF reporter robust z-score": -0.92}
{"gene": "REV3L (REV3 like, DNA directed polymerase zeta catalytic subunit)", "TNF reporter robust z-score": 0.57}
{"gene": "SLC17A7", "TNF reporter robust z-score": 1.48}
{"gene": "SLC17A7", "TNF reporter robust z-score": 1.81}
{"gene": "SLC17A7", "TNF reporter robust z-score": 0.99}
{"gene": "SLC17A7", "TNF reporter robust z-score": 1.83}
{"gene": "PPM1K (protein phosphatase, Mg2+/Mn2+ dependent 1K)", "TNF reporter robust z-score": -0.04}
{"gene": "PPM1K (protein phosphatase, Mg2+/Mn2+ dependent 1K)", "TNF reporter robust z-score": -0.5}
{"gene": "PPM1K (protein phosphatase, Mg2+/Mn2+ dependent 1K)", "TNF reporter robust z-score": -1.2}
{"gene": "PPM1K (protein phosphatase, Mg2+/Mn2+ dependent 1K)", "TNF reporter robust z-score": 0.07}
{"gene": "RHOF (ras homolog family member F, filopodia associated)", "TNF reporter robust z-score": -1.45}
{"gene": "RHOF (ras homolog family member F, filopodia associated)", "TNF reporter robust z-score": -1.27}
{"gene": "RHOF (ras homolog family member F, filopodia associated)", "TNF reporter robust z-score": -1.49}
{"gene": "RHOF (ras homolog family member F, filopodia associated)", "TNF reporter robust z-score": -0.48}
{"gene": "PHF10 (PHD finger protein 10)", "TNF reporter robust z-score": -0.08}
{"gene": "PHF10 (PHD finger protein 10)", "TNF reporter robust z-score": -0.17}
{"gene": "PHF10 (PHD finger protein 10)", "TNF reporter robust z-score": 0.36}
{"gene": "PHF10 (PHD finger protein 10)", "TNF reporter robust z-score": -0.69}
{"gene": "PIK3CA", "TNF reporter robust z-score": -0.12}
{"gene": "PIK3CA", "TNF reporter robust z-score": 0.2}
{"gene": "PIK3CA", "TNF reporter robust z-score": -0.66}
{"gene": "PIK3CA", "TNF reporter robust z-score": 0.19}
{"gene": "ATP8A2 (ATPase phospholipid transporting 8A2)", "TNF reporter robust z-score": 0.18}
{"gene": "ATP8A2 (ATPase phospholipid transporting 8A2)", "TNF reporter robust z-score": -0.46}
{"gene": "ATP8A2 (ATPase phospholipid transporting 8A2)", "TNF reporter robust z-score": 1.14}
{"gene": "ATP8A2 (ATPase phospholipid transporting 8A2)", "TNF reporter robust z-score": 0}
{"gene": "ALG6 (ALG6 alpha-1,3-glucosyltransferase)", "TNF reporter robust z-score": 0.44}
{"gene": "ALG6 (ALG6 alpha-1,3-glucosyltransferase)", "TNF reporter robust z-score": -0.08}
{"gene": "ALG6 (ALG6 alpha-1,3-glucosyltransferase)", "TNF reporter robust z-score": 0.56}
{"gene": "ALG6 (ALG6 alpha-1,3-glucosyltransferase)", "TNF reporter robust z-score": 1.71}
{"gene": "ZNF766 (zinc finger protein 766)", "TNF reporter robust z-score": -0.23}
{"gene": "ZNF766 (zinc finger protein 766)", "TNF reporter robust z-score": -0.13}
{"gene": "ZNF766 (zinc finger protein 766)", "TNF reporter robust z-score": -0.11}
{"gene": "ZNF766 (zinc finger protein 766)", "TNF reporter robust z-score": -0.14}
